# The other results are listed elsewhere or left out. The main result of the screen is listed elsewhere. These columns were measured beside it and carry no call. The list favours compounds with an active or inconclusive main result. Potencies come from curve fits of mixed quality, noted in brackets.
# Assay: qHTS Assay for Lipid Storage Modulators in Drosophila S3 Cells;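 as to cell number change: cells counted by Cell Tracker Red CMTPX staining in the red channel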
# Conditions: BODIPY lipid droplet fluorescence, 18-24 h; for cell number change: measured here: cell count max response, cells fed with added oleic acid
# Procedure, shortened: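 Laser-scanning cytometry quantifies lipid droplet accumulation (500–530 nm total intensity; droplet/cell object ratio) in oleic acid-fed (400 uM added) Drosophila S3 cells treated with a concentration series. 20 uM Triacsin C defined 100% inhibition.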
# [1] = measured here: lipid fluorescence (Fed channel) AC50, cells fed with added oleic acid
# [2] = measured here: cell number channel AC50, cells fed with added oleic acid
SMILES,cell number change,AC50 [1],AC50 [2]
Cc1c(C(=O)O)sc2nc3n(c(=O)c12)CCC3,-33.2%,"25.9 µM [falling, single point]",
CSc1cccc(NS(=O)(=O)c2ccc(F)cc2)c1,-11.8%,,
Cc1cccc(-c2nnc(SCc3ccccc3)o2)c1,2.23%,,"0.0146 µM [falling, full curve, poor fit]"
COC(=O)c1ccc(N2C(=O)CC(NCc3ccccc3)C2=O)cc1 (centres undefined),0.742%,"7.31 µM [falling, partial curve, poor fit]",
CC(=O)NNc1cc(C)nc(NS(=O)(=O)c2ccc(C)cc2)n1,-3.04%,,
COc1ccc(C)cc1NC(=O)Nn1cnnc1,13.1%,"23.1 µM [falling, partial curve]",
CCN(CC)C(=O)CSc1nc2ccccc2c(=O)n1CCC(=O)NCc1ccc(F)cc1,-101%,"29.1 µM [falling, single point]","20.6 µM [falling, single point]"
Cc1ccccc1C(=O)N1CCC(C(=O)N2CCN(c3ncccn3)CC2)CC1,14.8%,"2.91 µM [falling, single point]",
CCN(CC(=O)Nc1c(F)cccc1F)C(=O)c1ccc2ccccc2n1,5.12%,,
Nc1ccc(Oc2ccc3c(c2)OCO3)cc1,-41.5%,"7.31 µM [falling, full curve, poor fit]","10.3 µM [falling, partial curve, poor fit]"
CCOC(=O)N1CCN(S(=O)(=O)c2ccc(C(=O)N(CCCN(C)C)c3nc4ccc(Cl)cc4s3)cc2)CC1,15.1%,,"0.58 µM [rising, single point]"
CCOC(=O)Nc1nc2ccccc2s1,2.21%,"14.6 µM [falling, partial curve]","6.51 µM [falling, single point]"
CC(C)c1ccc(NC(=O)CCCN2C(=O)NC(C)(C)C2=O)cc1,1.44%,"0.651 µM [rising, partial curve]",
COc1ccccc1CCN=C(N)NS(=O)(=O)c1ccccc1F,14.2%,"18.4 µM [rising, single point]",
O=C(O)c1cc(N/N=C/c2ccc(OCc3ccccc3)cc2)ccc1Cl,-21.9%,"0.58 µM [falling, full curve]",
O=C(NCC(=O)N1CCCCCC1)c1ccc(Br)cc1,-0.829%,"6.51 µM [rising, single point]",
Cn1cc(Br)c(C(=O)N2CCc3ccccc32)n1,25.2%,"13 µM [rising, partial curve]",
COc1ccc2c(c1)C(C)=CC(C)(C)N2C(=O)CNCc1ccc2c(c1)OCO2,-38.5%,"29.1 µM [falling, single point]","9.2 µM [falling, partial curve]"
O=C(COC(=O)c1cc(Br)ccc1O)NCC1CCCO1 (centres undefined),-17.7%,,
COCCNC(=O)c1ccc2c(c1)S(=O)(=O)c1cc(Cl)ccc1C2=O,,"5.17 µM [falling, full curve]",
C=CCOC(=O)C1=C(C)NC2(O)c3ccccc3C(=O)C12O (centres undefined),0.517%,"0.58 µM [falling, full curve]",

# Some of the entries so far, bar-delimited.
SMILES | cell number change | AC50 [1] | AC50 [2]
O=C(NCC(=O)N1CCCCCC1)c1ccc(Br)cc1 | -0.829% | 6.51 µM [rising, single point] | 
Cn1cc(Br)c(C(=O)N2CCc3ccccc32)n1 | 25.2% | 13 µM [rising, partial curve] | 
COc1ccc2c(c1)C(C)=CC(C)(C)N2C(=O)CNCc1ccc2c(c1)OCO2 | -38.5% | 29.1 µM [falling, single point] | 9.2 µM [falling, partial curve]

# The list continues:

SMILES,cell number change,AC50 [1],AC50 [2]
Cc1cc(O)ccc1-c1cnc2ccccc2n1,-25%,"0.0517 µM [falling, full curve, poor fit]",
COC(=O)c1ccc(N2CCOCC2)c(NC(=O)c2cccs2)c1,30.8%,,
CCc1cc(Cn2nc(-c3ccccc3)cc2C(=O)NCCOC)on1,,"29.1 µM [rising, single point]",
COc1cc(NC(=O)C2CCCCC2)c(OC)cc1NC(=O)CN1CCCCC1,9.4%,,
CCCCn1c(N)c(N(CC(C)C)C(=O)c2oc3ccc(Br)cc3c2C)c(=O)[nH]c1=O,22.9%,"29.1 µM [rising, single point]",
O=C(O)c1ccc(NC(CSCc2ccccc2F)C(=O)O)c([N+](=O)[O-])c1 (centres undefined),-10.4%,"0.00517 µM [falling, full curve, poor fit]",
Nc1nonc1C(=O)NCCNC(=O)c1cccc(Cl)c1,4.62%,"4.11 µM [falling, single point]",
Cc1cccc([C@@H](NC(=O)OC(C)(C)C)C(=O)OC(C)(C)C)c1,-0.712%,"0.116 µM [rising, full curve, poor fit]",
Cc1cc(CN2CCOCC2)c(O)c(C2(C)CCCCC2)c1,-53.2%,"32.6 µM [falling, single point]","29.1 µM [falling, single point]"
CC(/C=C/c1ccccc1)=N\NC(N)=S,-13.5%,,
O=C(COC(=O)c1ccc2c(c1)OCO2)Nc1nc(-c2ccccc2)cs1,-14.6%,"29.1 µM [falling, single point]",
COc1ccccc1N1CCN(c2nc(C)nc3c2oc2ccccc23)CC1,-19.9%,,
O=C(CCN1CCc2ccccc2C1)c1ccc2c(c1)OCCO2,-75.8%,"29.1 µM [falling, single point]","18.4 µM [falling, partial curve]"
CCNc1nc2c(c(=O)[nH]c(=O)n2C)n1CC(C)C,-71%,"3.66 µM [falling, partial curve]","2.91 µM [falling, full curve]"
O=C(NC1CC1)c1sc2cc(F)ccc2c1Cl,-7.43%,"0.731 µM [falling, single point]",
Cc1ccc(OCC(O)CNCc2ccc(F)cc2)cc1 (centres undefined),19.7%,,
CCOC(=O)N1CCC(NC(=O)CSCc2nc(-c3cccc(OC)c3)oc2C)CC1,,,"2.31 µM [rising, partial curve]"
Cc1ccc(NC(=S)N/N=C/c2c(C)nn(-c3ccccc3)c2N2CCCC2)cc1,12.2%,"0.731 µM [rising, partial curve, poor fit]",
CN(C)C(=O)c1ccc(-c2cc(C(F)(F)F)nn2C)s1,-30.8%,,
Cc1cccc(NC(=S)NC(NC(=O)c2ccco2)C(Cl)(Cl)Cl)c1 (centres undefined),-23.4%,"4.11 µM [falling, partial curve]",
CCNC(=S)N1CCN(S(=O)(=O)c2cccc(C(F)(F)F)c2)CC1,8.92%,"29.1 µM [falling, single point]","2.59 µM [rising, single point]"
